In paper PMC8072677 one finds binding data, which are given here for one substance.

The chains behind the UniProt entries cited, without tags or fusion partners. Residues count along the entry.
UniProt P32248, residues 25-378: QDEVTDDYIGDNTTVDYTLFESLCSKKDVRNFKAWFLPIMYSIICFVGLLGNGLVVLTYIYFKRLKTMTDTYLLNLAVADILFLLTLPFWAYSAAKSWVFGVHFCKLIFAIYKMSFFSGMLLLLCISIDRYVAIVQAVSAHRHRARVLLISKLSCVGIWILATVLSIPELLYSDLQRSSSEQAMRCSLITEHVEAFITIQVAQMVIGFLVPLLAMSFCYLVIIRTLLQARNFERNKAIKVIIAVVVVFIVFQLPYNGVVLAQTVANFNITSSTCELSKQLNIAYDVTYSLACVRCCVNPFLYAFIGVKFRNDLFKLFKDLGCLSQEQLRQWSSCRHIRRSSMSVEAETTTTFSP
UniProt P32121: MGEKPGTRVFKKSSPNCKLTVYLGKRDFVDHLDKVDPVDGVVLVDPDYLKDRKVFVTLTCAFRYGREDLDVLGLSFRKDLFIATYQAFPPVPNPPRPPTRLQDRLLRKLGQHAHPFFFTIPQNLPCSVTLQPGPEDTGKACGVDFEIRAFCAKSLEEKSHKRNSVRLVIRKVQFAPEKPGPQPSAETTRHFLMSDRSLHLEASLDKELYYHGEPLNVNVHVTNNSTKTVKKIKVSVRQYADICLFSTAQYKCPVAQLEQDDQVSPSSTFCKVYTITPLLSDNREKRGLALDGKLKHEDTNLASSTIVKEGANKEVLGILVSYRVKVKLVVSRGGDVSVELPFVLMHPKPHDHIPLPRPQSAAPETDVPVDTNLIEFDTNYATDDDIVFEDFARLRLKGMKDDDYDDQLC

This test deals with CCR7-EGFP (human CCR7 fused to EGFP) (human) (UniProt P32248). Put plainly: FRET or BRET; HeLa cells co-transfected with β-arrestin2-Nluc and CCR7-EGFP (CCR7-HA for baseline), coelenterazine H; stimulated with 500 nM CCL19, CCL19-S6 or CCL19-S6^649P1, or 1.5 µM CCL21, CCL21-S6 or CCL21-S6^649P1. Background: Bioluminescence resonance energy transfer reports proximity on the nanometre scale.

No constants are given. Whether binding was seen depends on the method and setting. In cells and extracts the contact can be indirect. Some entries that bind do so weakly or less than the wild type.

As to “β-arrestin2-Nluc (from UniProt P32121 1-409)”, the binding entry is recorded as “binds”.
